No constants are given. Whether binding was seen depends on the method and setting. Binding seen in cells or lysates may run through a third protein. These calls come from enrichment with a bait or labelling near it, and not all partners need be listed.
Molecular target: Pyruvate kinase M2 (PKM2), endogenous (human (endogenous in A549)) (UniProt P14618)
Assay: affinity purification with mass spectrometry; anti-PKM2 immunoprecipitation from A549 treated with or without TEPP46 (50 μM, 24 h); in-gel digestion, LC-MS/MS

Protein sequences, listed by entry. Tags and fused reporters are not part of them.
UniProt P14618: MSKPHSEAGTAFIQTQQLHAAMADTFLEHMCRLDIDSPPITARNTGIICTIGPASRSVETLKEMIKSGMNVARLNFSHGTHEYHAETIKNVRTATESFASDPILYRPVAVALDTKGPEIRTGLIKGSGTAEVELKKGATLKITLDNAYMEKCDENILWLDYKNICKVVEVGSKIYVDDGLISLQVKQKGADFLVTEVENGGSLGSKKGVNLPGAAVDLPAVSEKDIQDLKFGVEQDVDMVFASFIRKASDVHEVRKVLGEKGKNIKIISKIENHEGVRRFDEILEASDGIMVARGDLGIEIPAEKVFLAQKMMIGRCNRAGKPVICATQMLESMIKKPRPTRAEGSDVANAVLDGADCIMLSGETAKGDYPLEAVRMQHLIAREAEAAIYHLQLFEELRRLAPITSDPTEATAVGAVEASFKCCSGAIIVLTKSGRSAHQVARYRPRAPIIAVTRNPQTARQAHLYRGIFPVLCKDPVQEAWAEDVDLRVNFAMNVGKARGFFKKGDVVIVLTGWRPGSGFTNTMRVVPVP
UniProt P18669: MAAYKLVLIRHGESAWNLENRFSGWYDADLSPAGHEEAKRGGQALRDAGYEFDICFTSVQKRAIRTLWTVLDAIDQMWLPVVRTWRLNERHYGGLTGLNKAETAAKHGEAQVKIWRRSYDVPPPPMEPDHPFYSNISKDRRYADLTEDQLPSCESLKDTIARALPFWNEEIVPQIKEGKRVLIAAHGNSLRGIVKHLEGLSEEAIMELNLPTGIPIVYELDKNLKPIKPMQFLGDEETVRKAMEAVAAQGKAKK

## Phosphoglycerate mutase 1 (PGAM1), endogenous (from UniProt P18669 1-254) (enzyme)
  binding: binds

From article PMC11183095
